{"source": "paper PMC7229837", "about": "“Molecular architecture of the DNA-binding sites of the P-loop ATPases MipZ and ParA from Caulobacter crescentus”", "assay_in_all_cases": "BLI", "key": {"[1]": {"target": "T1, MipZ WT (Caulobacter crescentus) (UniProt Q9A6C9)", "T1 sequence (looked up, limits assumed)": "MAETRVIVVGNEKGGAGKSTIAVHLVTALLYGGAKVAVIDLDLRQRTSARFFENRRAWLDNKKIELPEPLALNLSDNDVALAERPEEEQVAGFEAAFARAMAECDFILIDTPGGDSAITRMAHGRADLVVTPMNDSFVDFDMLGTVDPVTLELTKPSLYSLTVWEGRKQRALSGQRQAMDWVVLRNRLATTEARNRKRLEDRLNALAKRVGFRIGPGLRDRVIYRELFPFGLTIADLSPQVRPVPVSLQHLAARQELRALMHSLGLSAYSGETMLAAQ", "conditions": "1 mM ATPgS, no preference for GC-rich DNA, BLI: 50 mM HEPES/NaOH pH 7.2, 50 mM NaCl, 5 mM MgCl2, 0.1 mM EDTA, 10% glycerol, recombinant protein, protein details: C-terminal His6 (pET21a), label: biotin (5') on strand 1"}, "[2]": {"target": "T2, MipZ K13A (Caulobacter crescentus) (UniProt Q9A6C9)", "T2 sequence (looked up, limits assumed)": "T1 sequence (looked up, limits assumed) with K13A", "conditions": "1 mM ATPgS, BLI: 50 mM HEPES/NaOH pH 7.2, 50 mM NaCl, 5 mM MgCl2, 0.1 mM EDTA, 10% glycerol, recombinant protein, protein details: C-terminal His6 (pET21a), label: biotin (5') on strand 1"}, "[3]": {"target": "T3, MipZ K197A (Caulobacter crescentus) (UniProt Q9A6C9)", "T3 sequence (looked up, limits assumed)": "T1 sequence (looked up, limits assumed) with K197A", "conditions": "1 mM ATPgS, BLI: 50 mM HEPES/NaOH pH 7.2, 50 mM NaCl, 5 mM MgCl2, 0.1 mM EDTA, 10% glycerol, recombinant protein, protein details: C-terminal His6 (pET21a), label: biotin (5') on strand 1"}, "[4]": {"target": "T4, MipZ L237A (Caulobacter crescentus) (UniProt Q9A6C9)", "T4 sequence (looked up, limits assumed)": "T1 sequence (looked up, limits assumed) with L237A", "conditions": "1 mM ATPgS, BLI: 50 mM HEPES/NaOH pH 7.2, 50 mM NaCl, 5 mM MgCl2, 0.1 mM EDTA, 10% glycerol, recombinant protein, protein details: C-terminal His6 (pET21a), label: biotin (5') on strand 1"}, "[5]": {"target": "T5, MipZ L248A (Caulobacter crescentus) (UniProt Q9A6C9)", "T5 sequence (looked up, limits assumed)": "T1 sequence (looked up, limits assumed) with L248A", "conditions": "1 mM ATPgS, BLI: 50 mM HEPES/NaOH pH 7.2, 50 mM NaCl, 5 mM MgCl2, 0.1 mM EDTA, 10% glycerol, recombinant protein, protein details: C-terminal His6 (pET21a), label: biotin (5') on strand 1"}, "[6]": {"target": "T6, MipZ R194A (Caulobacter crescentus) (UniProt Q9A6C9)", "T6 sequence (looked up, limits assumed)": "T1 sequence (looked up, limits assumed) with R194A", "conditions": "1 mM ATPgS, BLI: 50 mM HEPES/NaOH pH 7.2, 50 mM NaCl, 5 mM MgCl2, 0.1 mM EDTA, 10% glycerol, recombinant protein, protein details: C-terminal His6 (pET21a), label: biotin (5') on strand 1"}, "[7]": {"target": "T7, MipZ R196A (Caulobacter crescentus) (UniProt Q9A6C9)", "T7 sequence (looked up, limits assumed)": "T1 sequence (looked up, limits assumed) with R196A", "conditions": "1 mM ATPgS, BLI: 50 mM HEPES/NaOH pH 7.2, 50 mM NaCl, 5 mM MgCl2, 0.1 mM EDTA, 10% glycerol, recombinant protein, protein details: C-terminal His6 (pET21a), label: biotin (5') on strand 1"}, "[8]": {"target": "T8, MipZ R198A (Caulobacter crescentus) (UniProt Q9A6C9)", "T8 sequence (looked up, limits assumed)": "T1 sequence (looked up, limits assumed) with R198A", "conditions": "1 mM ATPgS, BLI: 50 mM HEPES/NaOH pH 7.2, 50 mM NaCl, 5 mM MgCl2, 0.1 mM EDTA, 10% glycerol, recombinant protein, protein details: C-terminal His6 (pET21a), label: biotin (5') on strand 1"}, "[9]": {"target": "T9, MipZ R219A (Caulobacter crescentus) (UniProt Q9A6C9)", "T9 sequence (looked up, limits assumed)": "T1 sequence (looked up, limits assumed) with R219A", "conditions": "1 mM ATPgS, BLI: 50 mM HEPES/NaOH pH 7.2, 50 mM NaCl, 5 mM MgCl2, 0.1 mM EDTA, 10% glycerol, recombinant protein, protein details: C-terminal His6 (pET21a), label: biotin (5') on strand 1"}, "[10]": {"target": "T10, MipZ R221A (Caulobacter crescentus) (UniProt Q9A6C9)", "T10 sequence (looked up, limits assumed)": "T1 sequence (looked up, limits assumed) with R221A", "conditions": "1 mM ATPgS, BLI: 50 mM HEPES/NaOH pH 7.2, 50 mM NaCl, 5 mM MgCl2, 0.1 mM EDTA, 10% glycerol, recombinant protein, protein details: C-terminal His6 (pET21a), label: biotin (5') on strand 1"}, "[11]": {"target": "T11, MipZ R242A (Caulobacter crescentus) (UniProt Q9A6C9)", "T11 sequence (looked up, limits assumed)": "T1 sequence (looked up, limits assumed) with R242A", "conditions": "1 mM ATPgS, BLI: 50 mM HEPES/NaOH pH 7.2, 50 mM NaCl, 5 mM MgCl2, 0.1 mM EDTA, 10% glycerol, recombinant protein, protein details: C-terminal His6 (pET21a), label: biotin (5') on strand 1"}}, "note": "Positions count from the first letter of the chain named. Construct, isoform or probe ends are uncertain for at least one entry. For some of these results: The comparison behind a weaker result is the experiment's own reference, which may not be listed here. At least one verdict was read from the data and is not stated in words by the source. Protein sequences can lack the tags named with them."}
{"sequence": "AATAAATAAGAATAGTAAAAGTAAAGAAAG (double strand) [ATrich-biotin/ATrich-rev (17% GC)]", "values": [{"measurement": "binding result", "setting": "[1]", "value": "binds"}]}
{"sequence": "GCGCCCTGTTCGCCCCGCT (double strand) [GCrich-biotin/GCrich-rev (79% GC)]", "values": [{"measurement": "binding result", "setting": "[1]", "value": "binds"}]}
{"sequence": "CATACGAGGTCGAGATGC (double strand) [GC56-biotin/GC56-rev (56% GC)]", "values": [{"measurement": "binding result", "setting": "[1]", "value": "binds"}]}
{"sequence": "GAGGCAGACTAGATCTTCTAGTTCGG (double strand) [rand-biotin/rand-rev 26 bp]", "values": [{"measurement": "binding result", "setting": "[2]", "value": "binds more weakly"}, {"measurement": "binding result", "setting": "[3]", "value": "binds more weakly"}, {"measurement": "binding result", "setting": "[4]", "value": "binds more weakly"}, {"measurement": "binding result", "setting": "[5]", "value": "binds more weakly"}, {"measurement": "binding result", "setting": "[6]", "value": "binds more weakly"}, {"measurement": "binding result", "setting": "[7]", "value": "binds more weakly"}, {"measurement": "binding result", "setting": "[8]", "value": "binds more weakly"}, {"measurement": "binding result", "setting": "[9]", "value": "binds more weakly"}, {"measurement": "binding result", "setting": "[10]", "value": "binds more weakly"}, {"measurement": "binding result", "setting": "[11]", "value": "binds more weakly"}]}
